# Measurements published in PubChem BioAssay AID504648 (National Center for Advancing Translational Sciences (NCATS), 2011).
# About 610 (0.16%) of roughly 390,000 compounds were called active. Inconclusive means that the source gave no clear call. Such entries were picked first, then a sample of the others. Calls come from the whole dose curve; as a rule, active = well fitted inhibition curve with a large enough effect; inconclusive = small, poorly fitted or top-dose-only effect, or effect the other way, or another doubt; inactive = no such curve, though single readings can be large or run the other way. Potencies beside an inconclusive call are fits to weak or partial responses and may not hold up.
# Test: Nrf2 qHTS screen for inhibitors: counterscreen for cytotoxicity
# Details: A549 ARE-Fluc cells, CellTiter-Fluor viability, 18-24 h; activity change, negative = cytotoxicity: at 46 µM (top of the series)
# In short: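 A549 ARE-Fluc cells in 5% FBS OPTI-MEM, 5000 cells/well, rested 2 h then exposed to compounds in concentration-response for 18-24 h at 37 °C. Viability by CellTiter-Fluor fluorescence (Ex 405/Em 525) after 30 min; luciferase luminescence (BugLite, 15 min, RT) read afterwards.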
# % is set by controls: 0 for no effect and ±100 for the full control effect; potency is the fitted concentration of half-maximal effect.
SMILES,"activity change, negative = cytotoxicity",Potency
S=C(Nc1ccccc1)N1CCC(Cc2ccccc2)CC1,inactive: -16.5%,–
CC(C)(C)NC(=O)C[C@H]1C[C@H](C(=O)N2CCOCC2)[C@@]2(CCC3CCCC3)c3[nH]c4cc(-c5ccco5)ccc4c3CCN2C1=O,–,"inconclusive: 16.4 µM [falling, partial curve, poor fit]"
COc1ccc(S(=O)(=O)N2CCC(NC(=O)Nc3ccc(C)cc3)CC2)cc1,–,"inconclusive: 20.6 µM [activator, partial curve, poor fit]"
CCC(C)N(C(=O)CSc1nc(-c2cccs2)nc2ccccc12)C1CCS(=O)(=O)C1 (centres undefined),–,"inconclusive: 18.4 µM [falling, partial curve, poor fit]"
COc1cc(OC)cc(C(=O)NC(C(=O)N2CCc3ccccc3C2)C(C)C)c1 (centres undefined),–,"inconclusive: 32.6 µM [falling, partial curve, poor fit]"
CC(=O)Nc1sc2c(c1C#N)CCCCC2,–,"inconclusive: 32.6 µM [activator, partial curve, poor fit]"
O=S(=O)(c1ccccc1C(F)(F)F)N1CCN(c2nc(-c3ccccc3)nc3ccccc23)CC1,inactive: 7.2%,–
Cc1ccc(-c2nnc(Cc3ccc([N+](=O)[O-])cc3)o2)cc1,–,"inconclusive: 29.1 µM [activator, partial curve, poor fit]"
CCCCNC(=O)CCCN1C(=O)CCn2nc(-c3cccn3C)cc21,inactive: 10.1%,–
CCCNC(=S)NCCN1CCCCC1,–,"inconclusive: 10.3 µM [activator, partial curve, poor fit]"
CCc1cccc(CC)c1NC(=S)NCc1ccc2[nH]c(C)cc2c1,–,"inconclusive: 16.4 µM [activator, partial curve, poor fit]"
COc1cccc(NC(=O)Cn2c(=O)n(-c3cccc(OC)c3)c(=O)c3sc4ccccc4c32)c1,–,"inconclusive: 23.1 µM [falling, single point]"
CCC(C)(C)NC(=O)C1CCC(CNS(=O)(=O)c2ccc3c(c2)CC(C)N3C(C)=O)CC1 (centres undefined),inactive: -1.91%,–
O=C(Nc1ccc(Cl)c(Cl)c1)C1CCCCC1,inactive: -2.85%,–
NC(=S)NN=C1c2cc(S(=O)(=O)N3CCOCC3)ccc2-c2ccc(S(=O)(=O)N3CCOCC3)cc21,–,"inconclusive: 32.6 µM [falling, partial curve, poor fit]"
CS(=O)(=O)N(CC(=O)Nc1ccc(S(=O)(=O)N2CCOCC2)cc1)c1cccc(F)c1,–,"inconclusive: 0.0366 µM [activator, partial curve, poor fit]"
O=C(Nc1nccc(-c2cccs2)n1)c1ccccc1Cl,–,"inconclusive: 25.9 µM [activator, partial curve, poor fit]"
Oc1ccc(C=NNC(=S)Nc2cccnc2)nc1,–,"inconclusive: 16.4 µM [falling, partial curve, poor fit]"
CCCN(CC(=O)Nc1ccccc1OC)C(=O)CSc1ccc(Br)cc1C,–,"inconclusive: 20.6 µM [falling, single point]"
O=C(COc1ccc(Cl)cc1Cl)Nc1ccc(-c2ccc(N3CCOCC3)nn2)cc1,inactive: 0.565%,–
COc1cc(NS(=O)(=O)c2ccc(NC(=O)c3cccc(F)c3)cc2)nc(OC)n1,–,"inconclusive: 18.4 µM [activator, partial curve, poor fit]"
O=C(Nc1cccnc1)c1ccc(Cl)c(Cl)c1,inactive: -7.87%,–

SMILES,"activity change, negative = cytotoxicity",Potency
Cc1c(Nc2ccc3nonc3c2[N+](=O)[O-])c(=O)n(-c2ccccc2)n1C,–,"inconclusive: 11.6 µM [falling, partial curve]"
CCc1nn2c(-c3ccccc3OC)ccnc2c1-c1ccccc1,inactive: 11%,–
CC1CCCCC1NC(=S)Nc1ccc(SC(F)F)cc1 (centres undefined),–,"inconclusive: 29.1 µM [falling, single point]"
CCN1/C(=C2\C(=O)N(C)C(=S)N2c2ccccc2)C=Cc2ccccc21,–,"inconclusive: 20.6 µM [falling, partial curve]"
CCCc1nn2c(=O)cc(COC(=O)c3cccc(NC(=O)c4cccs4)c3)nc2s1,inactive: 1.53%,–
C=CC12C=CC=CN1C(C(=O)OC)=C(C(=O)OC)C(C(=O)OC)=C2C(=O)OC (centres undefined),–,"inconclusive: 18.4 µM [falling, partial curve, poor fit]"
COc1cccc(NC(=O)Nc2nc(SC(C)(C)C)ns2)c1,–,"inconclusive: 29.1 µM [falling, single point]"
Cc1ccnc(NC(=S)N2CCN(c3cccc(C(F)(F)F)c3)CC2)c1,–,"inconclusive: 20.6 µM [falling, partial curve, poor fit]"
CCOC(=O)c1ccccc1NC(=O)CN1CCCN(Cc2cc(C)ccc2C)S1(=O)=O,inactive: 0.375%,–
Cc1ccc(-c2csc3nc[nH]c(=S)c23)cc1C,–,"inconclusive: 29.1 µM [falling, single point]"
Cc1cc(C)n(-c2ccc(C(=O)Nc3ccc(C)c(S(=O)(=O)N4CCOCC4)c3)cc2)n1,–,"inconclusive: 23.1 µM [falling, partial curve, poor fit]"
COCCCNC(=O)c1ccc2c(c1)CCN2S(C)(=O)=O,–,"inconclusive: 20.6 µM [activator, partial curve, poor fit]"
COCCNC(=O)C(c1ccc(C)cc1)N(C(=O)CCC(=O)Nc1ccccn1)c1ccc(F)cc1 (centres undefined),inactive: -0.386%,–
CCC(CO)Oc1cc(NCc2ccccc2C(F)(F)F)c2ncn(C(C)C)c2c1 (centres undefined),–,"inconclusive: 23.1 µM [falling, single point]"
CCc1cc(C(=O)N(C)CC(=O)Nc2c(Cl)cccc2Cl)sc1C,inactive: -22.1%,–
FC(F)(F)c1cc(C(F)(F)F)c2ccc(N3CCN(c4ccc(Cl)cc4)CC3)nc2n1,inactive: 0.682%,–
O=c1[nH]c(=O)n(-c2ccccc2)c2c1C(C(F)(F)F)(C(F)(F)F)N=C(CCC1CCCCC1)N2,–,"inconclusive: 29.1 µM [falling, single point]"
Fc1ccc2c(c1)C1C=CCC1C(c1cc3c(cc1Br)OCO3)N2 (centres undefined),–,"inconclusive: 32.6 µM [falling, partial curve, poor fit]"
O=C(CCn1c(=O)[nH]c2ccsc2c1=O)NCCc1ccc(Cl)cc1,–,"inconclusive: 18.4 µM [activator, partial curve, poor fit]"
Clc1ccc(-n2c(Cc3ccccc3)nnc2SCc2nc(-c3cccs3)no2)cc1,–,"inconclusive: 29.1 µM [falling, single point]"
O=C(NC(NC(=S)Nc1cccc(Cl)c1)C(Cl)(Cl)Cl)OCc1ccccc1 (centres undefined),–,"inconclusive: 29.1 µM [falling, single point]"
CCCCn1c(N)c(N(CC)C(=O)c2cc3c(s2)CCCCC3)c(=O)[nH]c1=O,inactive: -7.53%,–

# Some of the entries so far, with tabs:
SMILES	activity change, negative = cytotoxicity	Potency
COc1cccc(NC(=O)Nc2nc(SC(C)(C)C)ns2)c1	–	inconclusive: 29.1 µM [falling, single point]
Cc1ccnc(NC(=S)N2CCN(c3cccc(C(F)(F)F)c3)CC2)c1	–	inconclusive: 20.6 µM [falling, partial curve, poor fit]
CCOC(=O)c1ccccc1NC(=O)CN1CCCN(Cc2cc(C)ccc2C)S1(=O)=O	inactive: 0.375%	–
Cc1ccc(-c2csc3nc[nH]c(=S)c23)cc1C	–	inconclusive: 29.1 µM [falling, single point]
Cc1cc(C)n(-c2ccc(C(=O)Nc3ccc(C)c(S(=O)(=O)N4CCOCC4)c3)cc2)n1	–	inconclusive: 23.1 µM [falling, partial curve, poor fit]

# Continued:

SMILES,"activity change, negative = cytotoxicity",Potency
CCCCN(C)C(=O)c1ccc2c(c1)N(Cc1cccc(F)c1)C(=O)c1ccccc1S2,inactive: -2.64%,–
O=C(CN1CC(=O)Oc2ccccc21)OCC(=O)c1ccccc1,–,"inconclusive: 2.06 µM [falling, partial curve, poor fit]"
COc1ccc(Nc2nnc(SCC(=O)NC(=O)Nc3ccc4c(c3)OCCO4)s2)cc1,–,"inconclusive: 32.6 µM [falling, partial curve, poor fit]"
COC(=O)c1c(C)[nH]c(C(=O)C(C)OC(=O)C2CC2)c1C (centres undefined),–,"inconclusive: 29.1 µM [falling, single point]"
Cc1nc(N2CCCC2)c2c(C(=O)N3CCN(c4cc(Cl)ccc4C)CC3)c(C)oc2n1,–,"inconclusive: 20.6 µM [falling, partial curve, poor fit]"
COc1cc2c(=O)n(Cc3ccco3)c(=O)n(CC(=O)c3cccc(Br)c3)c2cc1OC,–,"inconclusive: 25.9 µM [falling, partial curve, poor fit]"
C/C(Cn1nnc([N+](=O)[O-])n1)=N\NC(=O)c1ccncc1,–,"inconclusive: 14.6 µM [falling, partial curve, poor fit]"
O=C(NCc1ccc(F)cc1)C1CCN(S(=O)(=O)c2ccc(Br)s2)CC1,inactive: -10.8%,–
COC(=O)/C(C#N)=C/c1c(N2CCCCCC2)nc2c(C)cccn2c1=O,–,"inconclusive: 18.4 µM [falling, partial curve, poor fit]"
CCCN1CNc2c(c(=O)[nH]c(=S)n2CCc2c(OC)cccc2OC)C1,inactive: -0.0271%,–
Cc1ccccc1NC(=O)COC(=O)c1ccc(S(C)(=O)=O)c([N+](=O)[O-])c1,–,"inconclusive: 29.1 µM [falling, single point]"
Cc1cc2cc(CN(CC3CCCO3)C(=S)Nc3ccccc3)c(=O)[nH]c2cc1C (centres undefined),–,"inconclusive: 20.6 µM [falling, partial curve, poor fit]"
C=CCn1c(=O)c2ccccc2n2c(=S)[nH]nc12,inactive: 5.76%,–
CN(C)S(=O)(=O)Oc1ccsc1C(=O)Nc1ccc(Br)cc1,–,"inconclusive: 29.1 µM [falling, single point]"
COc1cc(/C=C2\CCc3ccccc3C2=O)cc(OC)c1OC,inactive: 5.33%,–
COc1ccc([C@@]23Oc4cc(OC)cc(OC)c4[C@]2(O)[C@H](O)[C@H](C(=O)N(C)C)[C@H]3c2ccccc2)cc1,–,"inconclusive: 0.0517 µM [falling, full curve]"
Cc1cccc(Cc2c(C)nc3c(C(=O)NCc4ccco4)cnn3c2C)c1,–,"inconclusive: 20.6 µM [falling, single point]"
Cc1ccc(-c2nnc(SCC(=O)NCCC(C)C)nc2-c2ccc(C)cc2)cc1,–,"inconclusive: 18.4 µM [falling, single point]"
NC(=O)CSc1nc(C2CC2)nc2sc3c(c12)CCCC3,–,"inconclusive: 13 µM [activator, partial curve, poor fit]"
Cc1cc(OCC(=O)NCC2(N(C)C)CCCCC2)cc(C)c1Cl,–,"inconclusive: 8.2 µM [activator, partial curve, poor fit]"
